Measurements published in PMC11099078.
Results are given in words; binding and its absence hold for the method and conditions named. Some binding calls cover weakened binding; strength is not graded here.

Target: GCP3 (γ-tubulin complex protein 3, Xenopus laevis) (X. laevis (endogenous in egg extract)) (UniProt O73787)
Experiment: cryo-EM structure; native γ-TuRC-capped MT minus ends from X. laevis egg extract, Paclitaxel or docetaxel; γ-TuRC-focused refinement 17 Å, MT-dominated refinement 23 Å; rigid-body docking of models

- binding: binds
Substance: MZT1 (mitotic spindle organizing protein 1, Xenopus laevis) (from UniProt Q5U4M5 1-72)
